Experimental data reported in article doi:10.1101/194993.
Numbering of substitutions follows the chain as printed. Results are given in words; binding and its absence hold for the method and conditions named. Binding seen in cells or lysates may run through a third protein. Some binding calls cover weakened binding; strength is not graded here. Where a sequence is shown, tags or fusion partners need not be part of it.

Sequences of proteins named here, by UniProt entry; tags and fusion partners are left off. A change or cut given only in a name is not applied to a line headed by its entry.
UniProt Q96GD4, whole entry: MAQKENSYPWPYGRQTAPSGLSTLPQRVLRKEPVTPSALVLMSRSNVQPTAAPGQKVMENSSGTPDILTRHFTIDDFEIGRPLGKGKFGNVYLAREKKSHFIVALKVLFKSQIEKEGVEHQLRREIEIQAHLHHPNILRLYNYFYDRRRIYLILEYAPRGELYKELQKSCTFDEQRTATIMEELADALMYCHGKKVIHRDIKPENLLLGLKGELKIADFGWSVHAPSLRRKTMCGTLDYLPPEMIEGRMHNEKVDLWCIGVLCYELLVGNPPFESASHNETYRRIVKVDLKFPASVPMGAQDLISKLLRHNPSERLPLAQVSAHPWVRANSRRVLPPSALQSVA

Tests used:
[1] = target: T1, HA/His-tagged Cdt1-WT (Cdt1-HASH) (human) (UniProt Q9H211); test: pull-down
T1 sequence: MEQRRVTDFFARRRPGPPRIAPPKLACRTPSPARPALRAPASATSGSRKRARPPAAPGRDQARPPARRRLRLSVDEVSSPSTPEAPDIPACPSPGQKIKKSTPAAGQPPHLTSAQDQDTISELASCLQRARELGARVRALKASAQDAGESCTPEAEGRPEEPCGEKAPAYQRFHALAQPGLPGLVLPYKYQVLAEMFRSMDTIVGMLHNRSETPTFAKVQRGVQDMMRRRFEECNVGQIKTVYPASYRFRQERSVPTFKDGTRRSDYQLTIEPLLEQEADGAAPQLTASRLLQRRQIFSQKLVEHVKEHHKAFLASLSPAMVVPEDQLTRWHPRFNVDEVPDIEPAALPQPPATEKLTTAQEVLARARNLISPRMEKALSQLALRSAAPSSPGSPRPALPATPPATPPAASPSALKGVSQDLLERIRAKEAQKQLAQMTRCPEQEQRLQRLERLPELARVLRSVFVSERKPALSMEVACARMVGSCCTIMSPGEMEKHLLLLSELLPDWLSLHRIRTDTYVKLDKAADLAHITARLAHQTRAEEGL

[2] = target: T2, cy-Cdt1 mutant [RRL (68-70) AAA], HA/His-tagged (human) (UniProt Q9H211); test: pull-down
T2 sequence: T1 sequence with R68A, R69A, L70A

binding [1]: binds
binding [2]: binds
Substance: Aurora B kinase (endogenous) (from UniProt Q96GD4 1-344) (enzyme)
